From article PMC5884558

Amino acid sequences for entries named in this document (tags omitted). A change or cut given only in a name is not applied to a line headed by its entry.
UniProt A1YKT1: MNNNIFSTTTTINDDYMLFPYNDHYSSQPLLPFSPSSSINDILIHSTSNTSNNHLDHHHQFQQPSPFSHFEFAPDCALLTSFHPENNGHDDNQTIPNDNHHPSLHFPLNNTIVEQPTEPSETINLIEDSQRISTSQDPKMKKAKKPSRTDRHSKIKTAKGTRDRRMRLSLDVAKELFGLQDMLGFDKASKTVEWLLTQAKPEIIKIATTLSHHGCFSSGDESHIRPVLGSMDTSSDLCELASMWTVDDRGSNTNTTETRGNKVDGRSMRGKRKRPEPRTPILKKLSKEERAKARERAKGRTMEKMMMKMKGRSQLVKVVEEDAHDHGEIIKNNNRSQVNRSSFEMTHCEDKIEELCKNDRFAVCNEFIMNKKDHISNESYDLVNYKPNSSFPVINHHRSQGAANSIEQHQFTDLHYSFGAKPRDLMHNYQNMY

How the values were obtained:
[1] = target: T1, N-terminal 108 amino acid residues of TIE1 fused to GAL4-DBD (Arabidopsis thaliana) (UniProt Q6IDB0); test: two-hybrid; bait TIE1(1-108) in pGBKT7-GW, BRC1 fragments and mutants in pGADT7-GW; yeast AH109; medium without Leu, Trp and His with 5 mM 3-AT
T1 sequence: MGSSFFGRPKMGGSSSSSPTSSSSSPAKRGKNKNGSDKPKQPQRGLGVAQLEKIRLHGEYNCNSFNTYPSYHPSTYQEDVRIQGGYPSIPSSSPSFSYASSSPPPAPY

[2] = target: T1, N-terminal 108 amino acid residues of TIE1 fused to GAL4-DBD (Arabidopsis thaliana); test: two-hybrid; bait DBD-TIE1N in pDEST32, preys AD-BRC1/BRC2 in pDEST22; yeast AH109; SD-Leu-Trp-His with 5 mM 3-AT
[3] = target: T1, N-terminal 108 amino acid residues of TIE1 fused to GAL4-DBD (Arabidopsis thaliana); test: two-hybrid; yeast two-hybrid screening of an Arabidopsis transcription factor library; bait: N-terminal 108 residues of TIE1

binding [1] | binding [2] | binding [3] | Substance
binds |  |  | BRC1 mutant protein BRC1mR fused to GAL4-AD (from UniProt A1YKT1)
no binding |  |  | BRC1 mutant protein tcp^RDR fused to GAL4-AD (from UniProt A1YKT1)
no binding |  |  | BRC1 mutant protein tcp^WL fused to GAL4-AD (from UniProt A1YKT1)

More lines, now with the values behind:

Substance | binding [1] | binding [2] | binding [3]
BRC1 mutant protein tcp^DRV fused to GAL4-AD (from UniProt A1YKT1) | no binding |  | 
BRC2 fused to GAL4-AD (Arabidopsis thaliana) |  | no binding | no binding

Results are given in words; binding and its absence hold for the method and conditions named. For part of these data: Binding calls can cover weak binding; strength is not graded here. Sequences can lack the tags named with a protein.
